# Out of some 220,000 compounds screened, about 2,400 (1.1%) were called active. The shares of active, inactive and inconclusive entries below differ from those in the screen. Calls follow the shape of the dose curve; as a rule, active = well fitted inhibition curve with a large enough effect; inconclusive = small, poorly fitted or top-dose-only effect, or effect the other way; inactive = no such curve, though single readings can be large or run the other way. Potencies beside an inconclusive call are fits to weak or partial responses and may not hold up.
# Assay: qHTS Multiplex Assay to Identify Dual Action Probes in a Cell Model of Huntington: Aggregate Formation (GFP); also: nearly all actives have a fitted effect of over 60% in size
# Conditions: PC12 HttQ103-GFP aggregates, Acumen cytometry, 40 h; activity change, negative = inhibition: at 46.1 µM (top of the series) unless noted
# Method in brief: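 Compounds (qHTS titration) were added to PC12 cells expressing an ecdysone-driven HTT exon 1 Q103–GFP fusion after induction with 100 nM tebufenozide. Aggregate formation was measured as GFP objects in cell lysates.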
# % is scaled to controls: 0 for no effect and ±100 for the full control effect; potency is read from the fitted curve at half-maximal effect.
Compound,Potency,"activity change, negative = inhibition"
Cc1cccc(NC(=O)c2ccc(C3SCC(=O)N3CCc3ccccc3)cc2)c1C (centres undefined),"inconclusive: 22.4 µM [inhibitor, single point]",–
Cc1sc2nc(CSc3ccccc3)nc(N3CCN(C)CC3)c2c1C,inactive,–
COc1ccc(N(CC(=O)NCC2CCCO2)S(=O)(=O)c2ccc(C)cc2)cc1OC (centres undefined),inactive,–
COc1cccc(C(=O)N2CCN(C(=O)c3cccc4ccccc34)CC2)c1OC,"inconclusive: 3.16 µM [inhibitor, partial curve]",–
CCCCCc1ccc(OCCCC[n+]2ccccc2)c(CCCCC)c1,active: 11.2 µM,–
N#CC1=C(SCC(=O)c2cc3ccccc3oc2=O)NC(=O)C(C#N)C12CCCC2 (centres undefined),"inconclusive: 12.6 µM [inhibitor, partial curve]",–
CN(C)/C=C1\C=C2C(=O)c3ccccc3N2C1=O,"inconclusive: 2.51 µM [inhibitor, partial curve]",–
S=C(NCCC(c1ccccc1)c1ccccc1)Nc1ccccc1Cl,active: 20 µM,–
Cc1cc(NC(=O)c2cccs2)no1,–,inactive: -12.1% [at 9.22 µM]
Cc1ccccc1C(=O)Nc1nnc(-c2cccnc2)o1,"inconclusive: 35.5 µM [inhibitor, partial curve]",–
Cc1ccc(S(=O)(=O)CCC(=O)NCc2ccc(Cl)cc2)cc1,"inconclusive: 3.16 µM [inhibitor, single point]",–
CN1CCc2c(sc(NC(=O)c3cc4cc([N+](=O)[O-])ccc4s3)c2C(N)=O)C1,active: 7.08 µM,–
COc1ccc(CCNS(=O)(=O)c2cn(C)c(=O)n(C)c2=O)cc1OC,"inconclusive: 3.55 µM [activator, single point]",–
Cc1ccc(C(=O)N2CCN(c3ncccn3)CC2)cc1S(=O)(=O)N1CCCCC1,"inconclusive: 31.6 µM [activator, single point]",–
O=C(CN1CCCCC1)N1CCCc2c1c(=O)oc1ccc(OCc3ccccc3)cc21,"inconclusive: 5.62 µM [activator, single point]",–
N#CCCn1cc(/C=C2\NC(=S)N(c3ccccc3)C2=O)c(-c2ccc(-c3ccccc3)cc2)n1,"inconclusive: 35.5 µM [inhibitor, single point]",–
CCOc1ccc(C(=O)N2CCN(c3cccc(C)c3C)CC2)cc1,"inconclusive: 35.5 µM [inhibitor, single point]",–
COc1ccc(/C=C/C(=O)OCC(=O)Nc2ccc(N3CCOCC3)cc2)cc1,"inconclusive: 2.82 µM [activator, single point]",–
Clc1ccc(Oc2nc(Oc3ccc(Cl)cc3)nc(N3CCOCC3)n2)cc1,"inconclusive: 10 µM [inhibitor, partial curve]",–
COc1ccc(NC(=O)COC(=O)[C@@H]2CCCN2C(=O)c2cccs2)cc1,"inconclusive: 7.94 µM [activator, partial curve, poor fit]",–
O=c1cc2c(=O)oc3cc(O)c(O)oc3c2c(O)c1O,–,inactive: -24.1% [at 9.22 µM]
O=C(O)CCCn1nc(C(F)(F)F)c2c1CCCCC2,"inconclusive: 1.58 µM [inhibitor, partial curve]",–
COc1ccccc1N1C(=O)c2ccc(C(=O)Nc3nccs3)cc2C1=O,"inconclusive: 1.26 µM [inhibitor, partial curve]",–

Compound,Potency,"activity change, negative = inhibition"
COc1cc(CC(=O)Nc2cccc(SC)c2)cc(OC)c1OC,"inconclusive: 28.2 µM [inhibitor, single point]",–
CC(C)(C)NC(=O)c1ccc2nsnc2c1,inactive,–
CCOc1ccc(S(=O)(=O)NCCOC)cc1C,"inconclusive: 15.8 µM [inhibitor, single point]",–
C[C@H]1[C@H](C)CC[C@]2(C(=O)O)CC[C@]3(C)C(=CC[C@@H]4[C@@]5(C)C[C@@H](O)[C@H](O)C(C)(C)[C@@H]5CC[C@]43C)[C@H]12,"inconclusive: 12.6 µM [activator, single point]",–
OC1(c2cccs2)CN(c2ccc(Br)cc2)C2=[N+]1CCCS2 (centres undefined),–,inactive: -13.2% [at 9.22 µM]
Cc1cc(C(=O)c2ccc(Cl)cc2)c(NC(=O)CCl)s1,"inconclusive: 31.6 µM [activator, single point]",–
Oc1[nH]c2c(Cl)cc(Cl)cc2c1N=NC(=S)NCC1CCCO1 (centres undefined),"inconclusive: 1.78 µM [inhibitor, full curve, poor fit]",–
COc1ccc2cc(C#N)c(N3CCN(Cc4nnnn4CCC(C)C)CC3)nc2c1,"inconclusive: 11.2 µM [inhibitor, single point]",–
O=C(NN1C(=O)C2C(c3ccccc3)C=CC(c3ccccc3)C2C1=O)c1cccc(Br)c1 (centres undefined),"inconclusive: 22.4 µM [inhibitor, single point]",–
O=[N+]([O-])c1ccc(Sc2nccn2Cc2ccccc2)c([N+](=O)[O-])c1,"inconclusive: 35.5 µM [inhibitor, single point]",–
Cc1ccc(NC(=O)C2CC(=O)n3ncnc3N2)cc1C (centres undefined),"inconclusive: 28.2 µM [activator, single point]",–
Cc1cc(C(=O)CSc2ccc3c(c2)OCCO3)c(C)n1C1CC1,"inconclusive: 35.5 µM [inhibitor, single point]",–
Cc1ccccc1NC(=O)CSCC(=O)Nc1ccccc1C,inactive,–
CCc1ccc(OCC(=O)c2c(O)c3ccccc3oc2=O)cc1,inactive,–
O=C(O)CCCN1C(=O)/C(=C\c2ccco2)SC1=S,–,inactive: 21.8% [at 9.22 µM]
O=C1CN=C(Nc2ccccc2Cl)N1c1ccccc1,active: 2.82 µM,–
O=C(/C=C/c1ccco1)N/C(=C\c1ccco1)C(=O)NCCc1nc2ccccc2[nH]1,"inconclusive: 11.2 µM [activator, partial curve, poor fit]",–
CC(Cc1c[nH]c2ccccc12)NC(N)=O (centres undefined),inactive,–
Cn1cc(C(=O)N/N=C/C(Br)=C/c2ccccc2)ccc1=O,"inconclusive: 10 µM [activator, partial curve]",–
CCOc1ccc(NC(=S)N2CCN(c3ccc(N4CCOCC4)nn3)CC2)cc1,inactive,–
O=C(O)C1CC=CCC1C(=O)Nc1ccc(F)c(F)c1 (centres undefined),inactive,–
Cc1ccc(CNC(=O)c2oc3ccc(S(=O)(=O)N4CCOCC4)cc3c2C)cc1,"inconclusive: 14.1 µM [inhibitor, partial curve]",–
O=C(COc1ccc(S(=O)(=O)NC2CCCCC2)cc1)NCCC1=CCCCC1,inactive,–

Compound,Potency,"activity change, negative = inhibition"
CS(=O)(=O)c1ccc(C(=O)OCC(=O)NC(=O)C2CCCCC2)cc1[N+](=O)[O-],"inconclusive: 35.5 µM [inhibitor, single point]",–
O=[N+]([O-])c1cc(S(=O)(=O)NC2=NCCCCC2)ccc1NCC1CCCCC1,"inconclusive: 11.2 µM [inhibitor, single point]",–
NC1=NC(=O)S/C1=C\c1ccc(F)cc1,"inconclusive: 35.5 µM [inhibitor, single point]",–
Cc1ccc(N/C(C(Cl)=C(Cl)Cl)=C(/Cl)[N+](=O)[O-])c(C)c1,inactive,–
COc1cc(CNCc2ccncc2)cc(Br)c1OCc1ccccc1F,"inconclusive: 12.6 µM [inhibitor, partial curve]",–
CC(=O)Sc1nc(-c2ccccc2)[nH]c1S(=O)(=O)c1ccc(C)cc1,"inconclusive: 10 µM [activator, partial curve]",–
COc1ccc(C(=O)Nc2cc(Cl)ccc2Cl)c(OC)n1,"inconclusive: 5.62 µM [inhibitor, single point]",–
COc1ccc(S(=O)(=O)NCC2CCCN(C(=O)c3cccs3)C2)cc1 (centres undefined),"inconclusive: 1 µM [activator, single point]",–
CC1=C(C#N)C(C)C2=C(CC(C)(C)CC2=O)N1 (centres undefined),"inconclusive: 22.4 µM [inhibitor, single point]",–
COc1ccccc1N/N=C(\C#N)C(=N)N1CCOCC1,"inconclusive: 11.2 µM [inhibitor, partial curve, poor fit]",–
C=CCc1cccc(/C=N/NC(=O)C(C)Nc2cccc(C)c2)c1O (centres undefined),active: 11.2 µM,–
OC1CCCN(Cc2ccc3ccc4cccc5ccc2c3c45)C1 (centres undefined),"inconclusive: 11.2 µM [inhibitor, single point]",–
CC1=C(C(=O)OCc2ccccc2)C(c2ccc3ccccc3c2)NC(=O)N1CCCCCC(=O)O (centres undefined),"inconclusive: 31.6 µM [activator, single point]",–
COc1ccc2cc3c(N)nn(C(=O)c4cccc(F)c4)c3nc2c1,active: 1 µM,–
CC(C)(C)C(=O)COc1ccccc1[N+](=O)[O-],"inconclusive: 14.1 µM [activator, single point]",–
Cc1ccc2nc(NC3=NC(CC(=O)O)C(=O)N3)nc(C)c2c1 (centres undefined),"inconclusive: 5.62 µM [activator, single point]",–
CCN(CC)S(=O)(=O)c1ccc(Oc2ccccc2)cc1,active: 15.8 µM,–
O=C(CN1CCN(Cc2ccccc2)CC1)Nc1ccc([N+](=O)[O-])cc1C(=O)Nc1ccccc1F,"inconclusive: 35.5 µM [inhibitor, single point]",–
COc1ccc(C(=O)/C=C/c2ccc(OC)c(Cn3nnc4ccccc43)c2)cc1,inactive,–
CCOc1c(Cl)cc(/C=N/NC(N)=S)cc1OC,"inconclusive: 35.5 µM [activator, single point]",–
CCOC(=O)c1c(-c2ccccc2)csc1NC(=O)C(C)NCc1ccco1 (centres undefined),"inconclusive: 3.16 µM [inhibitor, single point]",–
Cc1ccnc(SCC(=O)N2CCN(c3ccccc3)CC2)n1,inactive,–
C/C(=N/NC(=O)Cc1cccc2ccccc12)c1cccs1,"inconclusive: 35.5 µM [inhibitor, partial curve, poor fit]",–

# Full records, looked up by structure. Order of values: Potency | activity change, negative = inhibition
# `Cc1ccc2nc(NC3=NC(CC(=O)O)C(=O)N3)nc(C)c2c1` (centres undefined) reads inconclusive: 5.62 µM [activator, single point] | –
# `O=[N+]([O-])c1cc(S(=O)(=O)NC2=NCCCCC2)ccc1NCC1CCCCC1` reads inconclusive: 11.2 µM [inhibitor, single point] | –
# `CN(C)/C=C1\C=C2C(=O)c3ccccc3N2C1=O` reads inconclusive: 2.51 µM [inhibitor, partial curve] | –
# `COc1ccccc1N/N=C(\C#N)C(=N)N1CCOCC1` reads inconclusive: 11.2 µM [inhibitor, partial curve, poor fit] | –
